In all, about 390,000 compounds went through this assay and about 910 (0.23%) were called active. Inconclusive means that the source gave no clear call. Such entries were picked first, then a sample of the others. Calls come from the whole dose curve; as a rule, active = well fitted inhibition curve with a large enough effect; inconclusive = small, poorly fitted or top-dose-only effect; inactive = no such curve, though single readings can be large or run the other way. A potency beside an inconclusive call is a rough fit, not a confirmed value.
molecular target: Ubiquitin carboxyl-terminal hydrolase 1 (Homo sapiens) (UniProt O94782); test: Inhibitors of USP1/UAF1: Primary Screen; settings: recombinant USP1/UAF1, Ub-Rhodamine cleavage fluorescence; activity change, negative = inhibition: at 57.1 µM (top of the series); note: nearly all actives have a fitted effect of over 60% in size
Procedure, shortened: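 1 nM enzyme complex + cpd, 15 min RT; start with Ub-Rho 150nM final; kinetic fluorescence ex 480/em 540, 6 reads q60 s. Buffer 50mM HEPES pH 7.8, 0.5mM EDTA, 0.1 mg/ml BSA, 1mM TCEP, 0.01% Tween-20.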
% is set by controls: 0 for no effect and ±100 for the full control effect; potency is the fitted concentration of half-maximal effect.

Sequences of proteins named here, by UniProt entry; tags and fusion partners are left off. A change or cut given only in a name is not applied to a line headed by its entry.
UniProt O94782: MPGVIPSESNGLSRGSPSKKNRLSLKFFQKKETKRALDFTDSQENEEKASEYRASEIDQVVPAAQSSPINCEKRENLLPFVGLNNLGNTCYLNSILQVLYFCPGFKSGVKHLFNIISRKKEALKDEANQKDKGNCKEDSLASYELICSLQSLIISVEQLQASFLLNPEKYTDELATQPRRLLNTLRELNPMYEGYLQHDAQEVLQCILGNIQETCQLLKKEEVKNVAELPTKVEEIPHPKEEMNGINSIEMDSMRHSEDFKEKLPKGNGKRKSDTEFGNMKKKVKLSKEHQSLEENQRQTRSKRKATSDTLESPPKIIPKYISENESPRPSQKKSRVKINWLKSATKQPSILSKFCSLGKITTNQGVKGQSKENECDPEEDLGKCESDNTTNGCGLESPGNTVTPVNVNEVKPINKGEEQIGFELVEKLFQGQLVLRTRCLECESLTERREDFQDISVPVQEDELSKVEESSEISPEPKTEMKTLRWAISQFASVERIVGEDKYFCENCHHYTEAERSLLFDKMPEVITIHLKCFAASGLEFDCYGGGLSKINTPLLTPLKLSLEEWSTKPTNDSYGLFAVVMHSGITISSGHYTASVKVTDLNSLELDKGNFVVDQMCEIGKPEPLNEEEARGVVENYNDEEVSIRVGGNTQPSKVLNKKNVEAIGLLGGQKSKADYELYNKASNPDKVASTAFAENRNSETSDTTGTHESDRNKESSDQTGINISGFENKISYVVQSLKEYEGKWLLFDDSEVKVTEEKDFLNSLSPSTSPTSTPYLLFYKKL

| Compound | Potency | activity change, negative = inhibition |
| --- | --- | --- |
| CCOc1ccccc1NC(=O)c1c(NC(=O)c2cccc(C)c2)sc2c1CCCC2 | inconclusive: 1.78 µM [inhibitor, full curve, poor fit] | – |
| CC(=O)OC1[C@H](Oc2c(O)c(C)c3c4c2[C@@H](C)CC[C@@H]4[C@@H](C)C[C@@H]3C=C(C)C)OC[C@@H](O)[C@@H]1O (some centres undefined) | inconclusive: 89.1 µM [inhibitor, partial curve, poor fit] | – |
| O=C(Nc1ccc2oc(-c3cccnc3)nc2c1)c1ccc(-c2ccc(OC(F)(F)F)cc2)o1 | inconclusive: 25.1 µM [inhibitor, partial curve] | – |
| COc1ccc(OC)c(S(=O)(=O)N/N=C\c2ccc3c(c2)OCO3)c1 | inactive | – |
| COc1ccc(-c2noc(CCCC(=O)N3CCN(c4cc(C)ccc4C)CC3)n2)cc1 | inconclusive: 31.6 µM [inhibitor, partial curve] | – |
| COc1cccc(-n2cc(-c3ccc(F)cc3)[nH]c2=S)c1 | inconclusive: 7.94 µM [inhibitor, partial curve] | – |
| Cc1[nH]n(-c2ncc(-c3ccccc3)s2)c(=O)c1C(c1ccc(Cl)cc1)C(C#N)C#N (centres undefined) | inconclusive: 28.2 µM [inhibitor, partial curve] | – |
| CC(C)C[C@H](NC(=O)c1nc[nH]c1C(=O)NCCCCCNC(=O)OC(C)(C)C)C(=O)OC(C)(C)C | inconclusive: 5.01 µM [inhibitor, full curve] | – |
| Nn1c(SCC(=O)Nc2cccnc2Cl)nnc1-c1ccccc1 | inactive | – |
| O=C(NCc1ccco1)c1cc(NS(=O)(=O)c2cccc([N+](=O)[O-])c2)ccc1O | inactive | – |
| COc1cc(Cl)c(C)cc1NC(=O)c1ccc2c(SCC(=O)O)c3c(nc2c1)CCCC3 | inactive | – |
| CCN(CC)S(=O)(=O)c1ccc2c(c1)nc(CCC(=O)Nc1cccc(C(F)(F)F)c1)n2CC | inconclusive: 39.8 µM [inhibitor, partial curve] | – |
| Cc1ccc(NC(=S)Nc2cccc3cnccc23)cc1C | inconclusive: 3.55 µM [inhibitor, partial curve] | – |
| CNc1ccccc1C(=O)OCC(=O)N1CCc2ccccc2C1 | inconclusive: 0.1 µM [inhibitor, full curve, poor fit] | – |
| COc1ccccc1CN1CCN(C(=O)c2cccc3ccccc23)CC1 | inactive | – |
| CCn1ccnc1CN(C)C(=O)c1cc(COc2ccc(OC)c3ccccc23)on1 | inconclusive: 35.5 µM [inhibitor, partial curve] | – |
| O=C(CC1SC(=Nc2ccccc2)N(CCc2c[nH]c3ccccc23)C1=O)Nc1ccccc1F (centres undefined) | inconclusive: 31.6 µM [inhibitor, partial curve] | – |
| Cc1cc(=O)c2c(o1)C(=O)c1occc1C2=O | inconclusive: 28.2 µM [inhibitor, partial curve] | – |
| C=CCNC(=S)N/N=C/c1ccc(C)cc1C | inactive | – |
| Nc1c(C(=O)c2cccs2)sc2nsc(SCCN3CCCCC3)c12 | inconclusive: 17.8 µM [inhibitor, partial curve, poor fit] | – |

| Compound | Potency | activity change, negative = inhibition |
| --- | --- | --- |
| CCN(c1ccccc1)c1cc2ccccc2c(=O)[nH]1 | active: 25.1 µM | – |
| CC1(C)C2CC[C@]3(C)C(CC=C4[C@@H]5C[C@](C)(CO)CC[C@]5(C(=O)O)CC[C@]43C)[C@@]2(C)CC[C@@H]1O (some centres undefined) | inconclusive: 5.01 µM [inhibitor, single point] | – |
| COc1ccc(NC(=O)CSc2ncccc2C(=O)O)cc1OC | inconclusive: 5.62 µM [inhibitor, partial curve, poor fit] | – |
| CC(C)(C)OC(=O)C[C@H]1C/C=C\C[C@@H](CC(=O)N(CCO)Cc2ccccc2)C(=O)N[C@H](C(C)(C)C)COC1=O | inconclusive: 5.01 µM [inhibitor, single point] | – |
| Nc1nonc1C(=O)N/N=C/c1cc(Br)ccc1O | inconclusive: 39.8 µM [inhibitor, partial curve, poor fit] | – |
| CCOC(=O)c1sc(NC(=O)CSc2nnnn2-c2ccccc2)nc1C | inconclusive: 15.8 µM [inhibitor, partial curve] | – |
| CCN(CC)CCNC(=O)c1ccc2c(c1)NC(=O)C(CS(=O)(=O)Cc1cccc(Br)c1)N2 (centres undefined) | – | inconclusive: -33.1% [inhibitor] |
| CCN(Cc1ccccc1)Cc1c(O)ccc2c(=O)c(-c3ccccc3)c(C(F)(F)F)oc12 | inconclusive: 50.1 µM [inhibitor, partial curve, poor fit] | – |
| CCOc1ccc(CN2CCN(C/C=C/c3ccc(OC)cc3)CC2CCO)cc1 (centres undefined) | inactive | – |
| CCOC(=O)/C=C/C(=O)Nc1ccc(-c2nnc3n2CCCCC3)cc1 | inactive | – |
| Cc1[nH][nH]c(=O)c1C(c1ccc(-c2ccc(Cl)c(Cl)c2)o1)c1c(C)[nH][nH]c1=O | inconclusive: 35.5 µM [inhibitor, partial curve] | – |
| N#CC1=C(N)OC2=C(C(=O)CCC2)C12CCN(C(=O)OCc1ccccc1)CC2 | inconclusive: 7.08 µM [inhibitor, full curve, poor fit] | – |
| O=C(c1[nH]c2ccccc2c1Sc1ccc(Cl)cc1)N1CCCCC1 | inactive | – |
| COc1ccc(-n2c(Cc3cccn3C)nnc2SCC(=O)Nc2ccc(F)cc2)cc1 | inconclusive: 44.7 µM [inhibitor, partial curve] | – |
| O=C1C(C23CC4CC(CC(C4)C2)C3)C(=O)N(c2ccccc2)N1c1ccccc1 | inconclusive: 25.1 µM [inhibitor, single point] | – |
| COc1ccc(Cl)cc1NC(=O)Cn1c(=O)n(CCC(=O)NCc2ccc3c(c2)OCO3)c(=O)c2ccccc21 | inconclusive: 0.199 µM [inhibitor, full curve, poor fit] | – |
| Cc1ccc(CNS(=O)(=O)c2ccc(-c3cc(C(F)(F)F)on3)s2)cc1 | inconclusive: 0.708 µM [inhibitor, full curve] | – |
| CCOc1cccc(=O)c2c(C)oc(C)c12 | inconclusive: 28.2 µM [inhibitor, partial curve, poor fit] | – |
| CN(C)Cc1nc2ccccc2c(=O)n1CC#N | inconclusive: 0.631 µM [inhibitor, full curve, poor fit] | – |

In the list so far, these have bromine:

| Compound | Potency | activity change, negative = inhibition |
| --- | --- | --- |
| Nc1nonc1C(=O)N/N=C/c1cc(Br)ccc1O | inconclusive: 39.8 µM [inhibitor, partial curve, poor fit] | – |
| CCN(CC)CCNC(=O)c1ccc2c(c1)NC(=O)C(CS(=O)(=O)Cc1cccc(Br)c1)N2 (centres undefined) | – | inconclusive: -33.1% [inhibitor] |
